Drawing on paper PMC7156754, this text covers binding for one molecule.

Amino acid sequences for entries named in this document (tags omitted).
UniProt P46937: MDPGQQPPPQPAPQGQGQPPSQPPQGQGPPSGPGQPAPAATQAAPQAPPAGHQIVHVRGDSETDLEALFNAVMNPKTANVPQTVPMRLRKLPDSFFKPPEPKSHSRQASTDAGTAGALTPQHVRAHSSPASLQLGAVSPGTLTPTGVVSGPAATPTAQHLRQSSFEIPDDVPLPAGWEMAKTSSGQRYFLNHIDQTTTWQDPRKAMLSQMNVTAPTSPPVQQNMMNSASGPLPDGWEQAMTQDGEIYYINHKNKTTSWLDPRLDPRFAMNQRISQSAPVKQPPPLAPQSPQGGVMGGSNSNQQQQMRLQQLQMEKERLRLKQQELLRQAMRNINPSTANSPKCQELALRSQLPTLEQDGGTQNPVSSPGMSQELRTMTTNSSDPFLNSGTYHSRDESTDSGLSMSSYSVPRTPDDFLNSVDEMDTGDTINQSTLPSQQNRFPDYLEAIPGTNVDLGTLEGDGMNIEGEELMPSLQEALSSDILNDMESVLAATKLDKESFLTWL

No constants are given. Whether binding was seen depends on the method and setting. Binding seen in cells or lysates may run through a third protein. Some entries that bind do so weakly or less than the wild type.

The target of this experiment is Yes-associated protein 1 (YAP1) (human (endogenous in HL-7702)) (UniProt P46937). Put plainly: co-IP; 50-75 ug of protein lysate incubated with anti-YAP1 (ab52771) overnight at 4 °C, protein G Plus-Sepharose at 25 °C for 2-4 h, blot with anti-P73; HL-7702 cells treated with D-GalN/LPS and with oe-NC, sh-NC, oe-NEAT1, sh-NEAT1, oe-LATS2 or sh-LATS2 lentivirus.

B1: P73 (protein, UniProt O15350 1-636)
chain: MAQSTATSPDGGTTFEHLWSSLEPDSTYFDLPQSSRGNNEVVGGTDSSMDVFHLEGMTTSVMAQFNLLSSTMDQMSSRAASASPYTPEHAASVPTHSPYAQPSSTFDTMSPAPVIPSNTDYPGPHHFEVTFQQSSTAKSATWTYSPLLKKLYCQIAKTCPIQIKVSTPPPPGTAIRAMPVYKKAEHVTDVVKRCPNHELGRDFNEGQSAPASHLIRVEGNNLSQYVDDPVTGRQSVVVPYEPPQVGTEFTTILYNFMCNSSCVGGMNRRPILIIITLEMRDGQVLGRRSFEGRICACPGRDRKADEDHYREQQALNESSAKNGAASKRAFKQSPPAVPALGAGVKKRRHGDEDTYYLQVRGRENFEILMKLKESLELMELVPQPLVDSYRQQQQLLQRPSHLQPPSYGPVLSPMNKVHGGMNKLPSVNQLVGQPPPHSSAATPNLGPVGPGMLNNHGHAVPANGEMSSSHSAQSMVSGSHCTPPPPYHADPSLVSFLTGLGCPNCIEYFTSQGLQSIYHLQNLTIEDLGALKIPEQYRMTIWRGLQDLKQGHDYSTAQQLLRSSNAATISIGGSGELQRQRVMEAVHFRVRHTITIPNRGGPGGGPDEWADFGFDLPDCKARKQPIKEEFTEAEIH
With B1, the binding entry was “binds”.
